{
  "source": "patent US6562829B1",
  "about": "“Treatment of hepatic cirrhosis” (Hadasit Medical Research Services & Development Co., Ltd., priority 1997, dated 2003)",
  "key": {"[1]": {"test_system": "TAA-induced liver cirrhosis", "assay_type": "in vivo, rat", "description": "Male Sprague-Dawley rats were divided into three groups. Two groups were injected intraperitoneally with TAA twice weekly for 12 weeks, at a dose of 200 mg/kg body (Muller, A. et al., Exp. Pathol., 34:229-236, 1988; Hori, N. et al., Dig. Dis. Sci., 38:2195-2202, 1993). […] The other group of rats, control rats, was injected with saline. One group of TAA-treated rats and one control group were fed Halofuginone in the diet at a dose of 5 ppm.\nFor this experiment, rats in group 1 received only Halofuginone (n=4); rats in group 2 received TAA alone without Halofuginone (n=6); and rats in group 3 received TAA with Halofuginone (n=6). Groups 1and 3 received Halofuginone starting three days before the TAA injections were administered. At the end of the experimental period, the rats were sacrificed and the liver was removed and weighed.\nLiver samples were taken for histological examination. Briefly, the tissue samples were collected into phosphate-buffered saline (PBS) and fixed overnight in 4% paraformaldehyde in PBS at 4° C. Serial 5 μm sections were prepared after the samples had been dehydrated in graded ethanol solutions, cleared in chloroform and embedded in Paraplast. […]\nIn addition, the livers were scored in a double-blind evaluation, on a scale of 0-4, for the appearance of fibrotic tissue."}, "[2]": {"test_system": "dimethylnitrosamine-induced hepatic fibrosis", "experiment": "Dimethylnitrosamine-induced severe liver fibrosis in rats (Example 1)", "assay_type": "in vivo", "conditions": "rats given Halofuginone alone", "description": "The experimental method was as follows. Male Sprague-Dawley rats were divided into four groups. Two groups were injected intraperitoneally with 1% dimethylnitrosamine in saline for three consecutive days per week for 3 weeks, at a dose of 1 ml/kg body weight. This dosage regimen will induce severe liver fibrosis. The other two groups of rats, control rats, were injected with saline. One group of dimethylnitrosamine-treated rats and one control group were fed Halofuginone in the diet at a dose of 5 mg/kg weight of diet, starting three days before the dimethylnitrosamine injections were administered. At the end of the experimental period, the rats were sacrificed and the liver was removed and weighed.\nLiver samples were taken for histological examination. Briefly, the tissue samples were collected into phosphate-buffered saline (PBS) and fixed overnight in 4% paraformaldehyde in PBS at 4° C. Serial 5 μm sections were prepared after the samples had been dehydrated in graded ethanol solutions, cleared in chloroform and embedded in Paraplast. Differential staining of collagenous and non-collagenous proteins was performed with 0.1% Sirius red and 0.1% fast green as a counter-stain in picric acid. This procedure stains collagen red [Gascon-Barre, M., et al., J. Histochem. Cytochem., 37:377-381, 1989].\nLiver samples were then hybridized with a probe for rat collagen α1(I) expression. […]"}, "[3]": {"test_system": "mild dimethylnitrosamine-induced fibrosis", "experiment": "Mild dimethylnitrosamine-induced fibrosis in rat liver (Example 2)", "assay_type": "in vivo", "conditions": "Halofuginone to rats not given dimethylnitrosamine", "description": "The specific experimental method used was similar to that of Example 1, except that the dimethylnitrosamine-treated rats were only given 0.25% dimethylnitrosamine in saline, a much lower dose than that given in Example 1 above. Also, the duration of treatment was longer before the rats were sacrificed: 4 weeks as opposed to 3 weeks in Example 1.\nThe expression of the collagen α1(I) gene was measured as described in Example 1 above. For hydroxyproline analysis, liver samples were hydrolyzed for 22 hours at 110° C. with 6 N HCl. Nitrogen was determined after Kjeldahl digestion by the spectrophotometric procedure using an autoanalyzer as described by Krom [M. D. Krom, Analyst, 105:305-16, 1980]. The collagen-unique amino acid hydroxyproline from the same hydrolysate was determined by amino acid analysis (Biotronik LC 5000, Germany) after post-column derivatization on a cation exchange column (BTC 2710, Biotronik). The results are expressed as the percentage of collagen in total liver proteins."}},
  "data": [
    {"smiles": "O=C(CC1NCCC[C@H]1O)Cn1cnc2cc(Br)c(Cl)cc2c1=O", "note": "(stereo partly shown) [Halofuginone]", "values": [
      {"measurement": "collagen fibers in liver tissue (Sirius red staining)", "setting": "[1]; rats given Halofuginone alone", "value": "Almost no collagen fibers"},
      {"measurement": "double-blind liver fibrosis score", "setting": "[1]; scale of 0-4, control rats (group 1, received only Halofuginone)", "value": 0},
      {"measurement": "collagen fibers in liver tissue (Sirius red staining)", "setting": "[2]", "value": "Almost no collagen fibers"},
      {"measurement": "liver hydroxyproline concentration", "setting": "[3]", "value": "did not cause any change"}
    ]}
  ]
}
